Experimental data taken from article PMC6884552, “Glycogen branching enzyme controls cellular iron homeostasis via Iron Regulatory Protein 1 and mitoNEET” (Nature Communications, 2019).

Legend:
[1] = biological target: T1, Drosophila IRP1A in larvae (endogenously Flag-tagged IRP1A^3F as bait; endogenous IRP1A as prey) (Drosophila (endogenous in larvae)) (UniProt Q9VCV4); assay: affinity purification with mass spectrometry; prothoracic gland cells purified from dissected brain-ring gland complexes (CD8.Venus, anti-CD8 beads); 0.2% formaldehyde cross-linking; anti-Flag immunoprecipitation as for whole body
T1 sequence: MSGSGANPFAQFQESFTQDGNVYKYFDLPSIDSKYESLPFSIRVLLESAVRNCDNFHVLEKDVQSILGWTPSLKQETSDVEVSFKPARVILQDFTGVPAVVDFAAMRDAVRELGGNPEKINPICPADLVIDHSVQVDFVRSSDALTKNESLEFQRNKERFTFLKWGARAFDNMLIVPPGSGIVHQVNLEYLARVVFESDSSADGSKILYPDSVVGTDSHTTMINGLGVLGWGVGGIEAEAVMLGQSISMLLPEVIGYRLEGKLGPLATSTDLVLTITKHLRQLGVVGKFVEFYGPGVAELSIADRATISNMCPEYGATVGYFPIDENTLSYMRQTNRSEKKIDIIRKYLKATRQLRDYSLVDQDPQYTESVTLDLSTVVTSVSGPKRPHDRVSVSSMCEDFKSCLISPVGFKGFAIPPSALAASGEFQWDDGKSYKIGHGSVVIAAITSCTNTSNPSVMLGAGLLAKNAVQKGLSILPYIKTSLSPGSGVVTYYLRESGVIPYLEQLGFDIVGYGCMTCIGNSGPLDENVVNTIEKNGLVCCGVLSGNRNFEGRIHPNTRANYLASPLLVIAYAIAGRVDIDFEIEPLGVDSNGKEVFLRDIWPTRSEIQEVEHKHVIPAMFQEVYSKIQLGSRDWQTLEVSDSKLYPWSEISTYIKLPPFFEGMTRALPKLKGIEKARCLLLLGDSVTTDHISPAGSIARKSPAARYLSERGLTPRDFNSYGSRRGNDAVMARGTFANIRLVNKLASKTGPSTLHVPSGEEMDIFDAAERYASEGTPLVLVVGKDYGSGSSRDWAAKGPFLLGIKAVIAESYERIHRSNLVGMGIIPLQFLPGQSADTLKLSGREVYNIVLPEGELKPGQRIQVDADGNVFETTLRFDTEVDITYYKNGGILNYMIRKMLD

[2] = biological target: T1, Drosophila IRP1A in larvae (endogenously Flag-tagged IRP1A^3F as bait; endogenous IRP1A as prey) (Drosophila (endogenous in larvae)); assay: condition: only larvae reared for two generations on BPS (iron-depleted) food; affinity purification with mass spectrometry; whole-body larvae of IRP1A^3F flies reared for two generations (G2) on BPS-supplemented (iron-depleted) food; anti-Flag immunoprecipitation
[3] = biological target: T2, Drosophila AGBE in larvae (endogenously Flag-tagged AGBE^FCF as bait; endogenous AGBE as prey) (Drosophila (endogenous in larvae)) (UniProt A1Z992); assay: affinity purification with mass spectrometry; whole-body L3 larvae with Flag-tagged knock-in alleles (AGBE^FCF, IRP1A^3F, IRP1B^3F) on regular food (IRP1A^3F also after one or two generations on BPS food); 0.2% formaldehyde cross-linking in vivo; anti-Flag M2 affinity gel, 2 h, 4 °C; proteins found in untagged controls removed
T2 sequence: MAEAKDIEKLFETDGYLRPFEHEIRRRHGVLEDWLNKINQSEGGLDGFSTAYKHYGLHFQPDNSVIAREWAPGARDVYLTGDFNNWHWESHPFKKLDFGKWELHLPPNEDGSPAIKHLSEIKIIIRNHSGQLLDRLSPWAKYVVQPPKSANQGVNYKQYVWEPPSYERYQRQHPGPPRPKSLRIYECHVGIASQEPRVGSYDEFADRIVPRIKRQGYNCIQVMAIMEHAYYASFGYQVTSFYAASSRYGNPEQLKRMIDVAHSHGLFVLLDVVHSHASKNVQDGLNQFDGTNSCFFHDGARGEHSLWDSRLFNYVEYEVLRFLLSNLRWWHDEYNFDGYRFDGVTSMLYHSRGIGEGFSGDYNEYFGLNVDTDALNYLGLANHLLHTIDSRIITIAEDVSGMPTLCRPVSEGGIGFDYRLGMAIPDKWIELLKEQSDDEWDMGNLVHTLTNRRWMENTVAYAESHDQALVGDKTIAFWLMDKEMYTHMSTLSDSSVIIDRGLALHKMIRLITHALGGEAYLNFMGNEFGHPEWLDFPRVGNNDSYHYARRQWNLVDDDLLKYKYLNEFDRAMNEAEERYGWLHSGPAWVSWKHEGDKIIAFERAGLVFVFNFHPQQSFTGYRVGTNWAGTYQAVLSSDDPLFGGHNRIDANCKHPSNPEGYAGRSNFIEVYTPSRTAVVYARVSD

[4] = biological target: T1, Drosophila IRP1A in larvae (endogenously Flag-tagged IRP1A^3F as bait; endogenous IRP1A as prey) (Drosophila (endogenous in larvae)); assay: as above

B2: Drosophila IRP1A in larvae (endogenously Flag-tagged IRP1A^3F as bait; endogenous IRP1A as prey) (protein, UniProt Q9VCV4 1-902)
chain: T1 sequence
binding [3]: binds

B3: Drosophila ferritin Fer1HCH, endogenous in larvae (protein, UniProt Q7KRU8 20-205)
chain: DFKCSLAVPEITKDWVDMKDACIKGMRNQIQEEINASYQYLAMGAYFSRDTVNRPGFAEHFFKAAKEEREHGSKLVEYLSMRGQLTEGVSDLINVPTVAKQEWTDGAAALSDALDLEIKVTKSIRKLIQTCENKPYNHYHLVDYLTGVYLEEQLHGQRELAGKLTTLKKMMDTNGELGEFLFDKTL
binding [1]: binds
binding [4]: binds

B5: Drosophila glycogen synthase (GlyS), endogenous in larvae (enzyme, UniProt Q9VFC8 1-709)
chain: MRRQQSYRFEDNESTSYALRMNRRFSRVESGADLKDYFDRGDIASRENRWNFEVAWEVANKVGGIYTVIRSKAYVSTEEMGEQLCMMGPYKEHCARTEMEEMEFPRGNPLLDAVNSLRSRGYKIHTGRWLVDGNPQLILFDIGSAAWKLDQFKSEMWEKCHIGIPHLDIETNDAIILGFMIAEFLEEFRNFAVTYSQNNELSAPRIVAHFHEWQAGVGLIVLRTRLVEIATVFTTHATLLGRYLCAGNTDFYNNLDKFAVDEEAGKRQIYHRYCLERGATHLAHVFTTVSEITGYEAEHLLKRKPDIITPNGLNVKKFSAIHEFQNLHAVAKEKINEFVRGHFYGHIDFDLDKTLYFFIAGRYEFGNKGADIFIEALARLNAMLKHEKPDTTVVAFLIFPTKTNNFNVDSLRGHAVIKQLRDTINNVQQAVGKRMFDTCLQGNIPNADDLLQKDDLVKIKRCMFAMQRDSMPPVTTHNVADDWNDPVLSSIRRCHLFNSRHDRVKMVFHPEFLTSTNPLFGIDYEEFVRGCHLGVFPSYYEPWGYTPAECTVMGIPSVTTNLSGFGCFMEEHISDPKSYGIYIVDRRYIGLENSVQQLSSFMMEFSRLNRRQRIIQRNRTERLSDLLDWRTLGIYYRQARVKALQAVYPDYVDELSLYGSKNNLIFSRPHSEPPSPTSSRHTTPAPSVHGSDDEDSVDEETELKELGIK
binding [3]: binds
binding [4]: binds

The next lines start with the values.

binding [1]: binds
binding [2]: no binding
binding [3]: binds
binding [4]: binds
B1: Drosophila IRP1B in larvae (endogenously Flag-tagged IRP1B^3F as bait; endogenous IRP1B as prey) (protein, UniProt Q9VGZ3 1-899)
chain: MSGANPFAQFEKTFSQAGTTYKYFDLASIDSKYDQLPYSIRVLLESAVRNCDNFHILEKDVQSILGWSPALKQGSNDVEVSFKPARVILQDFTGVPAVVDFAAMRDAVLDLGGDPEKINPICPADLVIDHSVQVDFARAPDALAKNQSLEFERNKERFTFLKWGAKAFNNMLIVPPGSGIVHQVNLEYLARVVFENDATDGSKILYPDSVVGTDSHTTMINGLGVLGWGVGGIEAEAVMLGQSISMLLPEVIGYKLEGKLSPLVTSTDLVLTITKHLRQLGVVGKFVEFYGPGVAELSIADRATISNMCPEYGATVGYFPIDENTLGYMKQTNRSEKKIDIIRQYLKATQQLRNYADAAQDPKFTQSITLDLSTVVTSVSGPKRPHDRVSVSDMPEDFKSCLSSPVGFKGFAIAPEAQSAFGEFQWDDGKTYKLHHGSVVIAAITSCTNTSNPSVMLGAGLLAKKAVEKGLSILPYIKTSLSPGSGVVTYYLKESGVIPYLEKLGFDIVGYGCMTCIGNSGPLEENVVNTIEKNGLVCAGVLSGNRNFEGRIHPNTRANYLASPLLVIAYAIAGRVDIDFEKEPLGVDANGKNVFLQDIWPTRSEIQEVENKHVIPAMFQEVYSKIELGSQDWQTLQVSEGKLFSWSADSTYIKRPPFFEGMTRDLPKLQSIQKARCLLFLGDSVTTDHISPAGSIARTSPAARFLSERNITPRDFNSYGSRRGNDAIMSRGTFANIRLVNKLVEKTGPRTVHIPSQEELDIFDAAERYREEGTPLVLVVGKDYGSGSSRDWAAKGPFLLGVKAVIAESYERIHRSNLVGMGIIPLQFLPGQSAETLNLTGREVYNIALPESGLKPGQKIQVEADGTVFETILRFDTEVDITYYKNGGILNYMIRKMLS

binding [1]: binds
binding [4]: binds
B4: Drosophila ferritin Fer2LCH, endogenous in larvae (protein, UniProt Q9VA83 20-227)
chain: KDDEYCQNTVITACSTSAFSANSICNARFAGIDHIEPEIQSYINANLAKSYDYLLLATHFNSYQKNRPGFQKLYQGLSDRSFEDSIALIKQVTRRGGIVDFNTRHESSGSVSTKRGTLEVDELHSLALALDTEKQLATGATHVHSRATHATDAERDPELAHYFEENFLGKQAESVRKLSGYANDLAKLMKVPDPSLSVYLFDEYLQKQ

Results are given in words; binding and its absence hold for the method and conditions named. Binding seen in cells or lysates may run through a third protein. A yes stands for co-enrichment or nearness to the bait. Other partners may have been found. For some assays here: No binding means not detected with the bait. Tags and fused reporters may be left off the sequences shown. One block for each binder: values may come before it.
